This note sets out measurements from PubChem BioAssay AID493014 (National Center for Advancing Translational Sciences (NCATS), 2011).

The other results are listed elsewhere or left out. These are further read-outs of the screen, such as a control signal, another cell line or another target. No call is given for them. Most of these compounds were active or inconclusive in the main read-out, so they are no random draw. Potencies come from curve fits of mixed quality, noted in brackets.

The assay in a line: qHTS Assay to Find Inhibitors of Chronic Active B-Cell Receptor Signaling. Conditions: ABC-DLBCL IkBa-CBG/CBR reporter, luminescence ratio (green luciferase fused to IkBa over red control in TMD8 lymphoma cells), 4 h. Put shortly: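 Cell line TMD8 (human ABC DLBCL), stably expressing tet-inducible CBG68-IkBa fusion and CBR; IMDM/0.5% FBS; cpd up to 46 uM; dox induction, 4 h, 37C/5% CO2; dual luminescence; green/red ratio; MG132 control.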
On the technique in general: In qHTS, concentration-response curves come from the screen itself.

[1] abbreviates: measured here: CBR red luminescence, cell number.
The mark [2] stands for this setting: measured here: IkBa-CBG green luminescence.

`CS(=O)(=O)Nc1cccc(C2=NN(S(=O)(=O)c3ccc(F)cc3)C(c3cccs3)C2)c1` (stereo not given): the AC50 under setting [1] was 29.1 µM [falling, single point].

Take `CCCC(=O)Nc1nc(C)c(-c2csc(Nc3ccc(Cl)cc3)n2)s1`: under setting [1], the AC50 is 0.501 µM [rising, full curve, poor fit]. On the same count and under the same terms, with `CCN(CC(=O)Nc1sc2c(c1C#N)CCC(C)C2)CC(=O)NC1CCS(=O)(=O)C1` (stereo not given) the figure was 1.12 µM [rising, partial curve]. In the case of `Cc1sc2nc3c(C(=O)N4CCCC4)cc(C(=O)c4ccccc4O)cn3c(=O)c2c1C`, the AC50 is, setting by setting: under setting [1], 8.91 µM [falling, partial curve, poor fit]; under setting [2], 14.1 µM [rising, partial curve, poor fit]. `COc1ccccc1NC(=O)Nc1ccc(C)cn1`: under setting [1], the AC50 is 11.2 µM [falling, single point].

With `Cc1cc(C)c(C(=O)OCc2csc(CC(=O)Nc3ccccc3C)n2)c(C)c1`, the half-maximal activity concentration (AC50) under setting [1] was 1 µM [rising, full curve, poor fit]. On the same count and under the same terms, with `CCCCNC(=O)N(O)C1N(/N=C/c2ccccc2F)C(=S)SC1(C)C` (stereo not given) the figure was 35.5 µM [falling, single point]; with `O=C(NCCCn1ccnc1)Nc1ccc(Cl)c(Cl)c1`, 3.16 µM [rising, partial curve, poor fit]; with `CCN(c1ccccc1)S(=O)(=O)c1ccc(C(=O)Nc2ncccc2C)cc1`, 25.9 µM [falling, partial curve, poor fit]. On the same count and under the same terms, next, `COc1cc(OC)cc(C(=O)/C=C2\Sc3ccccc3N2C)c1`: 0.355 µM [falling, full curve, poor fit]. With `O=C(Nc1c(Cl)ccc2nsnc12)c1ccc([N+](=O)[O-])o1`, the AC50 under setting [1] is 3.98 µM [falling, partial curve, poor fit]. The same measure, in the same setting: with `CC(=O)c1ccc(S(=O)(=O)N(C)CCCC(=O)N(C)Cc2ccccc2F)cc1` the figure was 6.31 µM [rising, single point]. The same measure, in the same setting: next, `Cc1cccc(-c2noc(CCCC(=O)Nc3cccnc3)n2)c1`: 3.16 µM [rising, full curve, poor fit]; `COC(=O)c1ccc(Oc2c(Cl)cccc2[N+](=O)[O-])cc1`: 5.8 µM [rising, full curve, poor fit]. For `Cc1ccc(/C=C/C(=O)Nc2cc(S(N)(=O)=O)ccc2O)cc1`, the AC50 under setting [1] was 10 µM [falling, partial curve]. In the case of `Cc1ccc(C(=O)NCC(=O)NCC(=O)OCc2ccc(F)cc2)cc1`, the AC50 under setting [1] was 12.6 µM [rising, single point]. For `Cc1ccc(S(=O)(=O)Nc2c(O)c3ccccc3oc2=O)cc1`, under setting [1], the AC50 was 20 µM [falling, partial curve, poor fit]. Same read-out and setting: with `COc1ccc(NC(C)c2cc(Cl)ccc2O)cc1` (stereo not given) the figure was 7.31 µM [falling, partial curve]. Regarding `O=C(Nc1ccc2nc(-c3cccnc3)[nH]c2c1)C1CCCCC1`, the AC50 is 8.2 µM [falling, partial curve] under setting [1] and 3.26 µM [rising, full curve, poor fit] under setting [2]. `COc1ccc(C2CC(c3ccccc3)=NN2C(=O)COC(=O)COc2ccccc2)cc1` (stereo not given): the AC50 under setting [1] is 35.5 µM [rising, partial curve, poor fit]. Same read-out and setting: with `CCOC(=O)c1cnc(SCC(=O)N2CCOCC2)nc1N` the figure was 35.5 µM [falling, partial curve, poor fit]; with `CNC(=O)C1C(=S)NC(N)=C(C#N)C1c1ccccc1` (stereo not given), 1.84 µM [falling, partial curve, poor fit]; with `Cc1ccccc1NC(=O)CNc1ccc(Cl)c(C(F)(F)F)c1`, 29.1 µM [falling, partial curve, poor fit].

Take `N=c1n(CCN2CCCCC2)c2ccccc2n1CC(=O)c1ccc(Cl)c(Cl)c1`: under setting [1], the concentration at half-maximal activity (AC50) is 7.94 µM [falling, partial curve]. The same measure, in the same setting: with `CC(=O)c1coc2ccc(OCC(=O)O)cc12` the figure was 23.1 µM [rising, partial curve, poor fit]; with `COc1ccc2nc(-c3cccc(N)c3)[nH]c2c1`, 14.6 µM [falling, partial curve]. On the same count and under the same terms, next, `Cc1nc(Nc2ccc(Cl)cc2Cl)sc1C(=O)Nc1ccccc1`: 29.1 µM [falling, single point]; `COc1cc2c3c(c1OC)C1(C=CC(=NNC(N)=O)C=C1)CC3N(C(C)=O)CC2` (stereo not given): 18.4 µM [rising, partial curve, poor fit]. Same read-out and setting: next, `O=C(Nc1cnccn1)Nc1ccccc1F`: 8.91 µM [falling, partial curve, poor fit]; `COc1cccc(/C=C/C(=O)OCC(=O)Nc2ccc(Cl)c(S(=O)(=O)N(C)C)c2)c1`: 25.1 µM [rising, single point]. As for `COc1ccc(CN2CCN(S(=O)(=O)c3ccccc3)CC2)cc1Br`, the AC50 under setting [1] was 8.2 µM [falling, single point].

As for `COC(=O)[C@]1(C)CCC[C@@]2(C)C3CC[C@@]4(C)C[C@]3(CCC21)CC(=O)N4` (stereo not given in full), the AC50 under setting [1] is 29.1 µM [falling, single point]. On the same count and under the same terms, next, `CN1C(=O)C(CC(=O)NCCc2ccccc2)N(NC(=O)c2cccc(F)c2)C1=S` (stereo not given): 11.2 µM [falling, partial curve, poor fit]; `CCCc1c(C(=O)Nc2ccc(OC)cc2)cnn1-c1ccccc1`: 7.94 µM [falling, partial curve]; `Clc1cccc(-n2ncc3c(N4CCCCC4)ncnc32)c1`: 0.1 µM [rising, full curve, poor fit].

For the compound `Cc1cccc(NC(=O)c2ccccc2OCC(=O)c2ccc(F)cc2)c1`, the AC50 under setting [1] was 32.6 µM [rising, partial curve, poor fit]. On the same count and under the same terms, next, `Cc1cc(C(=O)Nc2ccccc2N2CCOCC2)c2ccccc2n1`: 0.13 µM [falling, full curve, poor fit].

In the case of `O=C(CNC(=O)c1ccccc1F)NCCN1C(=O)S/C(=C\c2ccccc2Cl)C1=O`, the AC50 under setting [1] was 3.55 µM [rising, partial curve, poor fit]. Same read-out and setting: next, `O=C(Nc1ccc(O)cc1C(=O)O)c1ccc(NC(=O)c2ccco2)cc1`: 25.9 µM [falling, partial curve, poor fit]; `COc1ccc(CNC(=O)C2CC(c3cccc(OC)c3)=NO2)cc1` (stereo not given): 20 µM [rising, partial curve, poor fit]. Still for that read-out and setting: with `C#Cc1ccc([C@@H]2C=C(C(=O)NCc3nc4ccccc4[nH]3)O[C@H](OCC)[C@H]2CCCO)cc1` the figure was 4.47 µM [rising, single point]; with `CCOC(=O)c1sc2ccc(S(=O)(=O)N3CCCCC3)cc2c1N`, 1.41 µM [falling, partial curve, poor fit]; with `COc1ccccc1N1CCN(C(C)C(=O)Nc2ccc(S(=O)(=O)N3CCOCC3)cc2)CC1` (stereo not given), 17.8 µM [rising, single point].

As to `CC(NC(=O)CN1C(=O)NC(Cc2ccccc2)(Cc2ccccc2)C1=O)C12CC3CC(CC(C3)C1)C2` (stereo not given), the AC50 under setting [1] was 23.1 µM [falling, single point]. Same read-out and setting: with `COc1cc(/C=N\NC(=O)c2ccccc2F)ccc1Oc1ccc([N+](=O)[O-])cn1` the figure was 35.5 µM [falling, single point].

With `CC(C)C(=O)Nc1cccc(NC(=O)c2cccc(Br)c2)c1`, the AC50 under setting [1] is 12.6 µM [falling, partial curve, poor fit]. Still for that read-out and setting: next, `CC1(C)CC(=O)C2=C(C1)N(c1ccccc1C#N)C(N)=C(C#N)C2c1cccs1` (stereo not given): 7.31 µM [rising, partial curve, poor fit]. Same read-out and setting: with `COc1ccc(CSc2ncn[nH]2)cc1[N+](=O)[O-]` the figure was 18.4 µM [rising, single point]. For `Cc1cccc(NC(=O)CSc2ncnc3nc[nH]c23)c1C`, the half-maximal activity concentration (AC50) under setting [1] was 35.5 µM [falling, single point]. Same read-out and setting: with `CCO/N=C(/C)c1c(O)cc(C(C)(C)C)n(-c2ccccc2)c1=O` the figure was 25.9 µM [rising, single point]; with `COc1ccccc1NC=C1C(=O)OC2(CCCCC2)OC1=O`, 5.62 µM [rising, single point]; with `COc1ccc(-n2c(N)c(C(=O)NCc3ccco3)c3nc4ccccc4nc32)cc1OC`, 14.6 µM [falling, partial curve, poor fit]. On the same count and under the same terms, with `COc1ccc(NC(=O)CSCC(=O)Nc2nnc(C3CC3)s2)cc1` the figure was 2.31 µM [rising, partial curve, poor fit]. Same read-out and setting: with `CSc1ncc(Cl)c(C(=O)Nc2ccccc2C)n1` the figure was 4.47 µM [rising, partial curve, poor fit]; with `COc1cc(Cl)cc(/C=C/c2ccc3ccccc3n2)c1OC(C)=O`, 1.03 µM [rising, partial curve].

Consider `CC1CC(CCN)(c2ccccc2)C(C)CN1C` (stereo not given), for which the AC50 under setting [1] was 0.112 µM [falling, full curve, poor fit]. Still for that read-out and setting: with `Cn1ccc2cc(-c3ccc4ncnc(NCc5cccs5)c4c3)ccc21` the figure was 20.6 µM [falling, partial curve].

`O=c1ccc2[n+]([O-])c3ccc(O)cc3oc-2c1`: the AC50 under setting [1] was 14.1 µM [rising, partial curve] and the AC50 under setting [2] is 6.31 µM [rising, partial curve, poor fit]. Consider `COc1ccccc1OCC(=O)Nc1cccc(-c2nc3ccccc3o2)c1`, for which the AC50 under setting [1] was 0.461 µM [falling, full curve, poor fit]. For the compound `O=C(Cn1c(-c2ccccn2)nc2ccccc21)NCCN1CCOCC1`, the AC50 under setting [1] was 29.1 µM [rising, single point]. The same measure, in the same setting: with `Cc1cc(C)nc(NS(=O)(=O)c2ccc(N/C=C\C(=O)c3cccs3)cc2)n1` the figure was 25.1 µM [falling, single point]; with `Cc1nc(SCc2nc3ccc(Cl)cc3[nH]2)c2oc3ccccc3c2n1`, 18.4 µM [falling, single point].

In general, AC50 refers to the concentration at which the activity in the assay is half-maximal.
